# Some of the results follow.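 How the source made its calls: active = dose-dependent thermal stabilisation significant by F-test of dose-response against flat model at 10% FDR; inactive = not significant.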
# Chains of the proteins cited; added tags and fusions are not shown. Lines headed by an entry give the natural chain unless they say otherwise; changes in a name come on top.
# UniProt Q7Z4W1: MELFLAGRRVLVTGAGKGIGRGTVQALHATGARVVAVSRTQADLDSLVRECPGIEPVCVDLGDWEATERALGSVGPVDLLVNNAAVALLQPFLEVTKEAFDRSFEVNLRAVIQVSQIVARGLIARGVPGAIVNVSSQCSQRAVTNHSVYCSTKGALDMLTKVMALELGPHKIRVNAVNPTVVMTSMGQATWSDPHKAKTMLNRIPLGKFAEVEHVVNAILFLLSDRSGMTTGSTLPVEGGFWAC
# UniProt Q92841: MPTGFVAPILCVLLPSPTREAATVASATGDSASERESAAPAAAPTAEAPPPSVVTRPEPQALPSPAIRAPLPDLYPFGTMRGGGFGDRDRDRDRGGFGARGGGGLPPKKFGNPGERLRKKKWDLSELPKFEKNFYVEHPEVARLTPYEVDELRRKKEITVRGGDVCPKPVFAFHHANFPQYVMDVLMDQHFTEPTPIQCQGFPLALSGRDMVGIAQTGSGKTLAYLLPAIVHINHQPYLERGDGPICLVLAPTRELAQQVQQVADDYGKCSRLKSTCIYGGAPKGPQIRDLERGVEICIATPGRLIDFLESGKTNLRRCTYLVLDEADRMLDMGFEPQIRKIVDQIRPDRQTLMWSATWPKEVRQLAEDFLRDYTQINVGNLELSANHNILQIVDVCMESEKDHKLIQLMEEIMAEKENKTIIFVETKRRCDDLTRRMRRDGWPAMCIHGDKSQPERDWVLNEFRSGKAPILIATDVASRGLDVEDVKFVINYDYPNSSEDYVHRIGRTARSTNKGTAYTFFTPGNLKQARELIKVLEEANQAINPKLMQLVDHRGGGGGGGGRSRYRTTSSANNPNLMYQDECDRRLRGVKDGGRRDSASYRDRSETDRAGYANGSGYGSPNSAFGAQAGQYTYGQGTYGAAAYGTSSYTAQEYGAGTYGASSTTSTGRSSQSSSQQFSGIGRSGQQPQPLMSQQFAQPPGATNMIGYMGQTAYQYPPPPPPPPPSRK
# UniProt Q96G46: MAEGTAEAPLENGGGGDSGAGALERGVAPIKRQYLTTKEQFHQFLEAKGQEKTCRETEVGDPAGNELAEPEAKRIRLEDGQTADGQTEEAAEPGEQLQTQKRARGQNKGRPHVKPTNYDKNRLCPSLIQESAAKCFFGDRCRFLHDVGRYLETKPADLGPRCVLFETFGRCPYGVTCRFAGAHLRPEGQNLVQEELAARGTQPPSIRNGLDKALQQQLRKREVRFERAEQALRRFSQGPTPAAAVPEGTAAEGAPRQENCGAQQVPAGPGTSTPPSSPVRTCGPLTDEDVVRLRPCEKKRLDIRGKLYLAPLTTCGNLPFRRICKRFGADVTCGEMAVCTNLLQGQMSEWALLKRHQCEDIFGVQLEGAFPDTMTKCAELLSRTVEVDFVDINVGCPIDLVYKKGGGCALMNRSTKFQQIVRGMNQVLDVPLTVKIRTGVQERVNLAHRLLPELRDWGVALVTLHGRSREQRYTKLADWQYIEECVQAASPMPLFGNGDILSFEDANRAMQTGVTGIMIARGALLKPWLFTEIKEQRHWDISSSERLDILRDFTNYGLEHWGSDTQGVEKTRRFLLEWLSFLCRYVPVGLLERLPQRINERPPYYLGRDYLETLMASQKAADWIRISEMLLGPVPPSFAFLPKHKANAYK
# UniProt Q9BUQ8: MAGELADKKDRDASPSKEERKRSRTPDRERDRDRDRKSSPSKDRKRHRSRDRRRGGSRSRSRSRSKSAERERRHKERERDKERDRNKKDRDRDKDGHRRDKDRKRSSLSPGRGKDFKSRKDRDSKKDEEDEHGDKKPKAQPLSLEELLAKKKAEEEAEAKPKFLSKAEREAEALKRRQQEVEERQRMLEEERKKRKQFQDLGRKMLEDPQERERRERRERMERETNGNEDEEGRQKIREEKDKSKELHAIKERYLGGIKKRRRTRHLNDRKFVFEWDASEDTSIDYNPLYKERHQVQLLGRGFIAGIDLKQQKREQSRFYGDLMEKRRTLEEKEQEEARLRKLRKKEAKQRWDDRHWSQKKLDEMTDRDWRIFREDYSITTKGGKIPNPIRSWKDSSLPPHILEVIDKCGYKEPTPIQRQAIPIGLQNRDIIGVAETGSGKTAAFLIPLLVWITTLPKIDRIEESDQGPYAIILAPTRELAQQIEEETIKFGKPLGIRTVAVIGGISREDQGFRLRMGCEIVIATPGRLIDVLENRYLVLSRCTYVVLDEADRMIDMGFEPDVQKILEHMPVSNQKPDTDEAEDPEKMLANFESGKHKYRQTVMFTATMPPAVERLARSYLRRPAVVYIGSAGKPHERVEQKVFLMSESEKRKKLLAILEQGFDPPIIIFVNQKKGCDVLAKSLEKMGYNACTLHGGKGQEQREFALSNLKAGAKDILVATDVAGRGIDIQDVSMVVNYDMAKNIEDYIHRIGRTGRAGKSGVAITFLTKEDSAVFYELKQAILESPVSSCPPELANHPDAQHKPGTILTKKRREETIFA
# UniProt O43237, whole entry: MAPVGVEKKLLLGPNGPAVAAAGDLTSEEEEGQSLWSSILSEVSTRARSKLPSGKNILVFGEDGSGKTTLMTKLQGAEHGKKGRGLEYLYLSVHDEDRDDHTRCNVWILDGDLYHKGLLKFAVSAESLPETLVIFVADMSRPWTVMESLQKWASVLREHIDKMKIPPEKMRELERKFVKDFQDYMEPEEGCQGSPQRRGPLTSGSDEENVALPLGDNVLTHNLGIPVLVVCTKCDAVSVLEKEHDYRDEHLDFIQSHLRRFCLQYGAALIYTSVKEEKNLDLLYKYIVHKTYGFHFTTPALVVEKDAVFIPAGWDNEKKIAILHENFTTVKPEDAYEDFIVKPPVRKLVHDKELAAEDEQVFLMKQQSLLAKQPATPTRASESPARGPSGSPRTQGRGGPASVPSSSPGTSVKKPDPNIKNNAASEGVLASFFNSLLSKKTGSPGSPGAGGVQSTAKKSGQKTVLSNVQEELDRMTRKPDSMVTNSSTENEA
# UniProt Q9Y5B0: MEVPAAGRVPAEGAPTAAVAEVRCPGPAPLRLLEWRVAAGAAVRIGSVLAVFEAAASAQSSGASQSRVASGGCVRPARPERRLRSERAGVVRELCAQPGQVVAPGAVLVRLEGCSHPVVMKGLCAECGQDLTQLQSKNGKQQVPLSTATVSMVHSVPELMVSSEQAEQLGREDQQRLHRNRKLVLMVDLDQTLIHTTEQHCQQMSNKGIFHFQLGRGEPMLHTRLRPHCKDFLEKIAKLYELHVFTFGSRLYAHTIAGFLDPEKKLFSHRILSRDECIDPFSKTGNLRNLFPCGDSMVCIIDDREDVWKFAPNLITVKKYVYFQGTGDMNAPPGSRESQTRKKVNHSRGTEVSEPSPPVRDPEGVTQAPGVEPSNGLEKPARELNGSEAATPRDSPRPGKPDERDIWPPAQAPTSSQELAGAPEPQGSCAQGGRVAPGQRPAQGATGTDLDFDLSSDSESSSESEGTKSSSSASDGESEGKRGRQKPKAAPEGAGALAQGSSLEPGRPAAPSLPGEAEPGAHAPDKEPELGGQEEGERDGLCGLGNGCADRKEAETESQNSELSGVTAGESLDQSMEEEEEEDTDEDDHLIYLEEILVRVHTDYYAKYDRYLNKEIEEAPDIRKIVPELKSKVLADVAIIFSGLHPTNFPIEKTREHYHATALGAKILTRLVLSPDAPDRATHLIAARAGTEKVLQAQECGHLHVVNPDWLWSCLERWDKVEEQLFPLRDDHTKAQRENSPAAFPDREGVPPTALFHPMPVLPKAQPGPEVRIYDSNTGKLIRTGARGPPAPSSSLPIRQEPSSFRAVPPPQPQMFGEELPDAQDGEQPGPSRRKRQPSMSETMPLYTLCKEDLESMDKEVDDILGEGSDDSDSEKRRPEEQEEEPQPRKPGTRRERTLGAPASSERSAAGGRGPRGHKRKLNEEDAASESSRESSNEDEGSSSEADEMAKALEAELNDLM
# UniProt Q16854: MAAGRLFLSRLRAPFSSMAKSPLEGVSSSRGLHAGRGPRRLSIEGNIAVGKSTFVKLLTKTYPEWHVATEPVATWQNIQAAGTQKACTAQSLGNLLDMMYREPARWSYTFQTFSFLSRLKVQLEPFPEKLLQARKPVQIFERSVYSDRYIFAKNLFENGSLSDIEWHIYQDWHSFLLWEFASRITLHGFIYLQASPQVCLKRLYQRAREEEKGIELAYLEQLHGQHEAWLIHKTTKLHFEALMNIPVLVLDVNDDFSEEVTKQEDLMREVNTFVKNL
# UniProt P19784, whole entry, looked up: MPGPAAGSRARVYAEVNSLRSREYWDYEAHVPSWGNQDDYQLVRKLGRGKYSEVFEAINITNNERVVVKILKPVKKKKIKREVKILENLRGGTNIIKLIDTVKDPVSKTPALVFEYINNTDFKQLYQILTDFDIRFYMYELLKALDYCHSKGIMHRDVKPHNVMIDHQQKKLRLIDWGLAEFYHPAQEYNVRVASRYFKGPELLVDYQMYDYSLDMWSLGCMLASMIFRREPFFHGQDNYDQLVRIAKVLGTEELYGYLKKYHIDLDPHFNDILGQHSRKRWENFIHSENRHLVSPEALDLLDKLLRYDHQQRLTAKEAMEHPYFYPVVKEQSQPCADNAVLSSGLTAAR
# UniProt Q9UPY3: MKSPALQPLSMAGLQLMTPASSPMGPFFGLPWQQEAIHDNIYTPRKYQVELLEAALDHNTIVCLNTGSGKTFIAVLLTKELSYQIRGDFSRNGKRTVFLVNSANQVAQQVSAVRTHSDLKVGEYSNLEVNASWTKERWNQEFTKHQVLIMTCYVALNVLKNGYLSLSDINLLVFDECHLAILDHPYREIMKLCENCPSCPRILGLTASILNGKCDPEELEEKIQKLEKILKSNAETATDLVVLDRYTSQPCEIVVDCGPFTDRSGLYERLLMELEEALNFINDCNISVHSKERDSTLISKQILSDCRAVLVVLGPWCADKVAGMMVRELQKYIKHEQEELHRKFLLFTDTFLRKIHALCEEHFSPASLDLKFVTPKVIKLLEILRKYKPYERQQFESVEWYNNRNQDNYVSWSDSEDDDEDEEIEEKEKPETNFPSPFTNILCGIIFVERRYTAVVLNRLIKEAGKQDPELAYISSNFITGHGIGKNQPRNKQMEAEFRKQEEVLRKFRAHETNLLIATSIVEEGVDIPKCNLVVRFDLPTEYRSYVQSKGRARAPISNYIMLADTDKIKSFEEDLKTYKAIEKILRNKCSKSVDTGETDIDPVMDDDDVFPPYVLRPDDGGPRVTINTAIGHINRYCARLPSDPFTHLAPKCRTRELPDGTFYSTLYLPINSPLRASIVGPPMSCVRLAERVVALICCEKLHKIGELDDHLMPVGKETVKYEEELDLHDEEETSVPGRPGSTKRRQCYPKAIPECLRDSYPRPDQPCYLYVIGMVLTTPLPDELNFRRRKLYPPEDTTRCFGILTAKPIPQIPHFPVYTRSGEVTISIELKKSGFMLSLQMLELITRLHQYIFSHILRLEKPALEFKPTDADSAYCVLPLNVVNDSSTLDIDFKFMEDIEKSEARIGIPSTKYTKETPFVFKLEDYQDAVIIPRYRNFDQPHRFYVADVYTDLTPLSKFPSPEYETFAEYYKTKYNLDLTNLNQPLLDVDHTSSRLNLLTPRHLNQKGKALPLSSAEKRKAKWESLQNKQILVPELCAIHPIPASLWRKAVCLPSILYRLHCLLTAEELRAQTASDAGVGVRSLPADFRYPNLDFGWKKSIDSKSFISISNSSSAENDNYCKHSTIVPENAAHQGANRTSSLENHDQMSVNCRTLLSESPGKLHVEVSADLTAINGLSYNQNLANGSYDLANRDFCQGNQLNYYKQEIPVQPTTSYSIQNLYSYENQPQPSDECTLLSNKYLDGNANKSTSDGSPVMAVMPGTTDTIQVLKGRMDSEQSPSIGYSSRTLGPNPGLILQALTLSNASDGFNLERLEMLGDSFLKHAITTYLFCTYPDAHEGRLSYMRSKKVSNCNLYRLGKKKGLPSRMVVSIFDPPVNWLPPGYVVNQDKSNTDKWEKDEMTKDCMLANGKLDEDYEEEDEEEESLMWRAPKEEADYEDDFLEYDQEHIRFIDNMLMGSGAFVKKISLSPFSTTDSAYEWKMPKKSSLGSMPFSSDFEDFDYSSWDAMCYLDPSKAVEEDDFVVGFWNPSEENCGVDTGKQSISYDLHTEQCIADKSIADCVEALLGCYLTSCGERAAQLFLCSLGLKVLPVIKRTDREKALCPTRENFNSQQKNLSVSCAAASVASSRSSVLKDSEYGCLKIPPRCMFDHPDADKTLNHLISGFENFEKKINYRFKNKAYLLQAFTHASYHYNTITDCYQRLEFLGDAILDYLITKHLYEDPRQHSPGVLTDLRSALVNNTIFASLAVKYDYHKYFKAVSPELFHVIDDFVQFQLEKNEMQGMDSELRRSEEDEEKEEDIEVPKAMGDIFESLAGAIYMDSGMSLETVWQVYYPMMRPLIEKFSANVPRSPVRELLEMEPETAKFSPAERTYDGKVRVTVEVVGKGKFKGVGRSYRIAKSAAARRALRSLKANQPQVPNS
# Compound: Nc1nc2c(ncn2[C@@H]2O[C@H](COP(=O)(O)OP(=O)(O)OP(=O)(O)O)[C@@H](O)[C@H]2O)c(=O)[nH]1
# Test: dose-dependent thermal stabilisation call (2D-TPP, DLPTP, 10% FDR) (binary (1 = stabilised)); higher = stabilised by the compound
# Conditions: system: Jurkat gel-filtered lysate; concentration range 1-500 µM
row,Target,dose-dependent thermal stabilisation call
1,DDX42 (UniProt Q86XP3),active: 1
2,DCXR (UniProt Q7Z4W1),inactive: 0
3,CTTN (UniProt Q14247),inactive: 0
4,DDX17 (UniProt Q92841),active: 1
5,DCAF12 (UniProt Q5T6F0),inactive: 0
6,DUS3L (UniProt Q96G46),inactive: 0
7,DNAJB1 (UniProt P25685),inactive: 0
8,DHX15 (UniProt O43143),active: 1
9,DNMT1 (UniProt P26358),inactive: 0
10,CTSD (UniProt P07339),inactive: 0
11,DDX23 (UniProt Q9BUQ8),active: 1
12,CSE1L (UniProt P55060),inactive: 0
13,DFFB (UniProt O76075),inactive: 0
14,DDAH2 (UniProt O95865),inactive: 0
15,DGCR8 (UniProt Q8WYQ5),active: 1
16,DYNC1LI2 (UniProt O43237),active: 1
17,CTDP1 (UniProt Q9Y5B0),inactive: 0
18,CUTA (UniProt O60888),inactive: 0
19,DENND6A (UniProt Q8IWF6),inactive: 0
20,DNAJC9 (UniProt Q8WXX5),inactive: 0
21,CSK (UniProt P41240),inactive: 0
22,CRIP2 (UniProt P52943),inactive: 0
23,DGUOK (UniProt Q16854),inactive: 0
24,CSNK2A2 (UniProt P19784),active: 1
25,DHX36 (UniProt Q9H2U1),inactive: 0
26,DICER1 (UniProt Q9UPY3),active: 1
27,CROT (UniProt Q9UKG9),inactive: 0

# Nothing new here: entries from further up.
row,Target,dose-dependent thermal stabilisation call
2,DCXR (UniProt Q7Z4W1),inactive: 0
3,CTTN (UniProt Q14247),inactive: 0
